According to article PMC5722644:

T1: FLAG-tagged Drosophila spartin (Drosophila) (UniProt Q9VN45)
T1 sequence: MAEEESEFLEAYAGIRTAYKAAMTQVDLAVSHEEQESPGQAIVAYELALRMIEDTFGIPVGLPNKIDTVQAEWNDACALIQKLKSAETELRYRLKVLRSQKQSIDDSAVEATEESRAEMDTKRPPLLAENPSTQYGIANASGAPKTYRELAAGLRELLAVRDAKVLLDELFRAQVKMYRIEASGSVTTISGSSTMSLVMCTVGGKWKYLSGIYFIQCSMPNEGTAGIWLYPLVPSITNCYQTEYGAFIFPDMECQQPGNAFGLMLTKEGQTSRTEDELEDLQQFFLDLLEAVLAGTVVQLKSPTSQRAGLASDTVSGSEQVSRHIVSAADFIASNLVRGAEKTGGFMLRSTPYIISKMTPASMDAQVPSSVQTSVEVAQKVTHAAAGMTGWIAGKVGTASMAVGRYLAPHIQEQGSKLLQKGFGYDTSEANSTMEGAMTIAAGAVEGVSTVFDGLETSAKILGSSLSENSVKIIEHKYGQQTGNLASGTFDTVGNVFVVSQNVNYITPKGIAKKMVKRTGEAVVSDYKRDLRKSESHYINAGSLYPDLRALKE

B1: Rps16 (protein, UniProt P0CX51 1-143)
chain: MSAVPSVQTFGKKKSATAVAHVKAGKGLIKVNGSPITLVEPEILRFKVYEPLLLVGLDKFSNIDIRVRVTGGGHVSQVYAIRQAIAKGLVAYHQKYVDEQSKNELKKAFTSYDRTLLIADSRRPEPKKFGGKGARSRFQKSYR
B2: Sec4 (protein, UniProt P07560 1-215)
chain: MSGLRTVSASSGNGKSYDSIMKILLIGDSGVGKSCLLVRFVEDKFNPSFITTIGIDFKIKTVDINGKKVKLQLWDTAGQERFRTITTAYYRGAMGIILVYDVTDERTFTNIKQWFKTVNEHANDEAQLLLVGNKSDMETRVVTADQGEALAKELGIPFIESSAKNDDNVNEIFFTLAKLIQEKIDSNKLVGVGNGKEGNISINSGSGNSSKSNCC
B3: Rps15 (protein, UniProt Q01855 1-142)
chain: MSQAVNAKKRVFKTHSYRGVDLEKLLEMSTEDFVKLAPARVRRRFARGMTSKPAGFMKKLRAAKLAAPENEKPAPVRTHMRNMIIVPEMIGSVVGIYNGKAFNQVEIRPEMLGHYLGEFSITYTPVRHGRAGATTSRFIPLK
B4: Pds5 (protein, UniProt Q04264 1-1277)
chain: MAKGAVTKLKFNSPIISTSDQLISTNELLDRLKALHEELASLDQDNTDLTGLDKYRDALVSRKLLKHKDVGIRAFTACCLSDILRLYAPDAPYTDAQLTDIFKLVLSQFEQLGDQENGYHIQQTYLITKLLEYRSIVLLADLPSSNNLLIELFHIFYDPNKSFPARLFNVIGGILGEVISEFDSVPLEVLRLIFNKFLTYNPNEIPEGLNVTSDCGYEVSLILCDTYSNRMSRHLTKYYSEIIHEATNDDNNSRLLTVVVKLHKLVLRLWETVPELINAVIGFIYHELSSENELFRKEATKLIGQILTSYSDLNFVSTHSDTFKAWISKIADISPDVRVEWTESIPQIIATREDISKELNQALAKTFIDSDPRVRRTSVMIFNKVPVTEIWKNITNKAIYTSLLHLAREKHKEVRELCINTMAKFYSNSLNEIERTYQNKEIWEIIDTIPSTLYNLYYINDLNINEQVDSVIFEYLLPFEPDNDKRVHRLLTVLSHFDKKAFTSFFAFNARQIKISFAISKYIDFSKFLNNQESMSSSQGPIVMNKYNQTLQWLASGLSDSTKAIDALETIKQFNDERIFYLLNACVTNDIPFLTFKNCYNELVSKLQTPGLFKKYNISTGASIMPRDIAKVIQILLFRASPIIYNVSNISVLLNLSNNSDAKQLDLKRRILDDISKVNPTLFKDQIRTLKTIIKDLDDPDAEKNDNLSLEEALKTLYKASKTLKDQVDFDDTFFFTKLYDFAVESKPEITKYATKLIALSPKAEETLKKIKIRILPLDLQKDKYFTSHIIVLMEIFKKFPHVLNDDSTDIISYLIKEVLLSNQVVGDSKKEIDWVEDSLLSDTKYSAIGNKVFTLKLFTNKLRSIAPDVPRDELAESFTEKTMKLFFYLIASGGELISEFNKEFYPTPSNYQTKLRCVAGIQVLKLARISNLNNFIKPSDIIKLINLVEDESLPVRKTFLEQLKDYVANELISIKFLPLVFFTAYEPDVELKTTTKIWINFTFGLKSFKKGTIFERALPRLIHAIAHHPDIVGGLDSEGDAYLNALTTAIDYLLFYFDSIAAQENFSLLYYLSERVKNYQDKLVEDEIDEEEGPQKEEAPKKHRPYGQKMYIIGELSQMILLNLKEKKNWQHSAYPGKLNLPSDLFKPFATVQEAQLSFKTYIPESLTEKIQNNIKAKIGRILHTSQTQRQRLQKRLLAHENNESQKKKKKVHHARSQADDEEGDGDRESDSDDDSYSPSNKNETKKGHENIVMKKLRVRKEVDYKDDEDDDIEMT
B5: Rps18ap (protein, UniProt P0CX55 1-146)
chain: MSLVVQEQGSFQHILRLLNTNVDGNIKIVYALTTIKGVGRRYSNLVCKKADVDLHKRAGELTQEELERIVQIMQNPTHYKIPAWFLNRQNDITDGKDYHTLANNVESKLRDDLERLKKIRAHRGIRHFWGLRVRGQHTKTTGRRRA
B6: Rpl27ap (protein, UniProt P0C2H6 1-136)
chain: MAKFLKAGKVAVVVRGRYAGKKVVIVKPHDEGSKSHPFGHALVAGIERYPLKVTKKHGAKKVAKRTKIKPFIKVVNYNHLLPTRYTLDVEAFKSVVSTETFEQPSQREEAKKVVKKAFEERHQAGKNQWFFSKLRF
B7: Rps12 (protein, UniProt P48589 1-143)
chain: MSDVEEVVEVQEETVVEQTAEVTIEDALKVVLRTALVHDGLARGLRESTKALTRGEALLVVLVSSVTEANIIKLVEGLANDPENKVPLIKVADAKQLGEWAGLGKIDREGNARKVVGASVVVVKNWGAETDELSMIMEHFSQQ
B8: Yip3 (protein, UniProt P53633 1-176)
chain: MNQLGALAQVSRFTQNFSMENIKSEFQSLQSKLATLRTPQEFFNFKKISKPQNFGEVQSRVAYNLKYFSSNYGLIIGCLSIYTLLTNLLLLFVIVLVVAGIVGINKLKGEELVTPFGSFKTNQLYTGLVCVAVPIGFLASPISTLLWLIGASAVSVFGHASLMEKPIETVFDEETV
B9: Gde1 (enzyme, UniProt Q02979 1-1223)
chain: MKFGKTFANHRIPEWSSQYVGYKSLKKMIKEITRLQEDIYRAHNKNSYDEGRPPTKMRDSSNSAQNYLDSPKIQKLLASFFFAVDRDIEKVDTFYNSQYAEYKKRFERLLSSNQFNEIKSTLVVDANKEDAVAQTLLTKDTREMNMLLKGTSQASRLSYHKDDLIEIQSILAELRKQFRNLKWYAELNKRAFGKILKKLDKKVGTNQQMSTMKTRILPLQFANDSLITKDLSLLKTIWEQVTFRINSYERVMRSTSPNANANDNTEFFKIICVFIEEDDSKGLIRELTNLYSELSLIPTRIMISVLNKAALSKSLACIDAILKVIPSLNDSEDINRRNFFHHHIIAIGKLIRKQEILSRKKKSQPSKYTNSEGEIVTDLRTLHTTLSAPAESDSITEEEKSSACTLSYILEELPIHLRPCLFQHDNYKRTPLHYSCQYGLSEVTKLIIKLMKEWNIWNEIPIDDVSAFGDAESLTPLHLCVLGAHPKTTEVLLQSLDPNVKLKSSSLLHLATEWNNYPLLHVLLSSKRFDINYQDNELHETPLYLACRLNFFEAAVCLLYNGADLEIREKLFGWTAIFVAAAEGFTDIVKLLIANNANFDIEDEGGWTPMEHAVLRGHLHIADMVQIRDELVTHPHSQLNSGSEEKEPLNEISAGELNERNENGNGGNKGSLGKLAGPIKSYGHRFLDNNESLILITLGSNDTRNKSPSISLSSEALAKVIGLETDCALSLVISCNDSIDKSSVILDLPLDDNVDAVDFKVPFKVDYSHTLYFDIVPTYGTRSLETHNRIDCQKNNNNYVMARGVSMLNKSYSSVGVNRSILNGSVTVPIIANHTLEILGTLKFEYIIITPFEHPQLPLERTETYWKSLVSTRVIGHRGLGKNNPNKSLQIGENTVESFIMAASLGASYVEFDVQLTKDNVPVVYHDFLVAETGVDIPMHELTLEQFLDLNNADKEHIQRGAGHSPHHVNGADTALQKYRGRSVDDSDVSTLRRAWDLHDNDPNGKSNNAHWSDNRMRLTKTFKKNNFKGNARGHSIASSFVTLKELFKKIPANVGFNIECKFPMLDEAEEEELGQIMMEMNHWVDTVLKVVFDNANGRDIIFSSFHPDICIMLSLKQPVIPILFLTEGGSEQMADLRASSLQNGIRFAKKWNLLGIVSAAAPILKAPRLVQVVKSNGLVCVTYGVDNNDPENASIQIEAGVDAVIVDSVLAIRRGLTKKNEK
B10: Rpn6 (protein, UniProt Q12377 1-434)
chain: MSLPGSKLEEARRLVNEKQYNEAEQVYLSLLDKDSSQSSAAAGASVDDKRRNEQETSILELGQLYVTMGAKDKLREFIPHSTEYMMQFAKSKTVKVLKTLIEKFEQVPDSLDDQIFVCEKSIEFAKREKRVFLKHSLSIKLATLHYQKKQYKDSLALINDLLREFKKLDDKPSLVDVHLLESKVYHKLRNLAKSKASLTAARTAANSIYCPTQTVAELDLMSGILHCEDKDYKTAFSYFFESFESYHNLTTHNSYEKACQVLKYMLLSKIMLNLIDDVKNILNAKYTKETYQSRGIDAMKAVAEAYNNRSLLDFNTALKQYEKELMGDELTRSHFNALYDTLLESNLCKIIEPFECVEISHISKIIGLDTQQVEGKLSQMILDKIFYGVLDQGNGWLYVYETPNQDATYDSALELVGQLNKVVDQLFEKASVLY

target: T1, FLAG-tagged Drosophila spartin (Drosophila); test: affinity purification with mass spectrometry; whole-cell extracts of yeast expressing FLAG-tagged Drosophila spartin (vector control beside it) on anti-FLAG M2 agarose beads; eluates on Tricine-SDS-PAGE, lanes cut into slices, in-gel trypsin digest, LC-MS/MS

binding	Binder
binds	B1
binds	B2
binds	B3
binds	B4
binds	B5
binds	B6
binds	B7
binds	B8
binds	B9
binds	B10

These are yes or no findings as the source states them, for the method shown. Binding seen in cells or lysates may run through a third protein. A yes stands for co-enrichment or nearness to the bait. Other partners may have been found. Sequences can lack the tags named with a protein.
